The text below walks through data of the supplement of paper PMC10849652.

Chains of the proteins cited; added tags and fusions are not shown. Lines headed by an entry give the natural chain unless they say otherwise; changes in a name come on top.
UniProt Q9NZ32, whole entry, looked up: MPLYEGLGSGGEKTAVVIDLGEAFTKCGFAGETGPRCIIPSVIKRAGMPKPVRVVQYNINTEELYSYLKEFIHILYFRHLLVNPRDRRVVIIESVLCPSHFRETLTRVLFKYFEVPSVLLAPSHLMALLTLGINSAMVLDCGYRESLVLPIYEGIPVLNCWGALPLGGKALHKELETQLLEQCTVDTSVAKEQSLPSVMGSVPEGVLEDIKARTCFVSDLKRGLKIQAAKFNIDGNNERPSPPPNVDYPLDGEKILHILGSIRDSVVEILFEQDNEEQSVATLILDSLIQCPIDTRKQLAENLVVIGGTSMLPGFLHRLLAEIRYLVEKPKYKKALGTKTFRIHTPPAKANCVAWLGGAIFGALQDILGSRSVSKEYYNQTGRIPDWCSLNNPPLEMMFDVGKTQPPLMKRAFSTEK
UniProt Q86V24: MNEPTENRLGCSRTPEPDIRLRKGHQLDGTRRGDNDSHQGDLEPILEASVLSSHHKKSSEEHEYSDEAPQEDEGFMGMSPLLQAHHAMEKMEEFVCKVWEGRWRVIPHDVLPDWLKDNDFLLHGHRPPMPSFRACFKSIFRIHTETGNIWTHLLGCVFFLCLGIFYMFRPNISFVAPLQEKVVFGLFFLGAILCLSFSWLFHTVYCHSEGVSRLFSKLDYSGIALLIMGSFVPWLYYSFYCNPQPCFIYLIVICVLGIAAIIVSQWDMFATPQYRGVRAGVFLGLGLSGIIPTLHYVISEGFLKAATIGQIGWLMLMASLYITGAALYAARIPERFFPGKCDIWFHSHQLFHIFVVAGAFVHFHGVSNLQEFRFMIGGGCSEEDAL
UniProt Q9H568: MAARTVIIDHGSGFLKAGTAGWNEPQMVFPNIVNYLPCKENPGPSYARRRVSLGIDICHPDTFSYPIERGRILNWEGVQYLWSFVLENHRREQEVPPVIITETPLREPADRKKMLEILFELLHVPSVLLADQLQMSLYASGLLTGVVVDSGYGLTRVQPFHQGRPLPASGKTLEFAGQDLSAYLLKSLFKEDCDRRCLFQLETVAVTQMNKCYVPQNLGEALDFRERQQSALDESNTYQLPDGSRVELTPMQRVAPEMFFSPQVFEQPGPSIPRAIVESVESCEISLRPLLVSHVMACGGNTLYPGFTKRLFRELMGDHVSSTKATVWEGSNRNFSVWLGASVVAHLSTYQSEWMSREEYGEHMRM
UniProt Q13443: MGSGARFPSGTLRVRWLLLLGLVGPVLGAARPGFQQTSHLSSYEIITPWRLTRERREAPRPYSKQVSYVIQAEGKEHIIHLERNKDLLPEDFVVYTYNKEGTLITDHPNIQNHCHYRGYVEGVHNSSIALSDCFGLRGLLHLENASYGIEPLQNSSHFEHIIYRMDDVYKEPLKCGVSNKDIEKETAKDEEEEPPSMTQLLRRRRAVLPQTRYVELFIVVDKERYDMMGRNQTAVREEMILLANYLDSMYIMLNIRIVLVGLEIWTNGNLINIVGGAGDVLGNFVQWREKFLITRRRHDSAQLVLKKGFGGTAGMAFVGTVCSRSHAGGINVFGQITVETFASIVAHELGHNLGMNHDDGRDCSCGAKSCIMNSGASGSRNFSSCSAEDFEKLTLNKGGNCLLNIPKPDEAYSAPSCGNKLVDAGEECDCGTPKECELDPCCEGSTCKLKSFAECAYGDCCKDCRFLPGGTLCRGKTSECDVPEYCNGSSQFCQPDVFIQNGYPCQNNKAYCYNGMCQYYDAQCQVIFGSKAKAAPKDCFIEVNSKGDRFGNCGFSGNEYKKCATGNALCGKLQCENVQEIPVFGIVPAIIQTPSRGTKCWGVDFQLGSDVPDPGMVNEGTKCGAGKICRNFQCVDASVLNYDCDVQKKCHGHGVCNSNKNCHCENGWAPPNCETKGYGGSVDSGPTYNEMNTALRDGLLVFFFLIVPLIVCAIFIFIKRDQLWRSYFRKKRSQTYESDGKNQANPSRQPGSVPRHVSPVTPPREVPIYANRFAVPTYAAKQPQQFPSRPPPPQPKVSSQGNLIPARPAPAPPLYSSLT
UniProt O43865, whole entry, looked up: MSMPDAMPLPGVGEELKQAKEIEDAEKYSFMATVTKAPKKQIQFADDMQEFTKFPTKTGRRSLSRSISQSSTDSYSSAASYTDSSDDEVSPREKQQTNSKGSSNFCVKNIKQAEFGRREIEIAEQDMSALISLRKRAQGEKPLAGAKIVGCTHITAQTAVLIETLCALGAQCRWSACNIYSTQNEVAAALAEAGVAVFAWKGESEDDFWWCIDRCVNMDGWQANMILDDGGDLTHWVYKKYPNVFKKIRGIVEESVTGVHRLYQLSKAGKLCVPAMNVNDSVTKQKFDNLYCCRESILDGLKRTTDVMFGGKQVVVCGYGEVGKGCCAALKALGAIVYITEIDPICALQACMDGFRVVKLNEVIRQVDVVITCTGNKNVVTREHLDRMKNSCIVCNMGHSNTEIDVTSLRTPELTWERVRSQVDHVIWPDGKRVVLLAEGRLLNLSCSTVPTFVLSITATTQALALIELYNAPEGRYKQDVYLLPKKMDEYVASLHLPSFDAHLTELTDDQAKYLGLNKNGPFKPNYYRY
UniProt O95831, whole entry, looked up: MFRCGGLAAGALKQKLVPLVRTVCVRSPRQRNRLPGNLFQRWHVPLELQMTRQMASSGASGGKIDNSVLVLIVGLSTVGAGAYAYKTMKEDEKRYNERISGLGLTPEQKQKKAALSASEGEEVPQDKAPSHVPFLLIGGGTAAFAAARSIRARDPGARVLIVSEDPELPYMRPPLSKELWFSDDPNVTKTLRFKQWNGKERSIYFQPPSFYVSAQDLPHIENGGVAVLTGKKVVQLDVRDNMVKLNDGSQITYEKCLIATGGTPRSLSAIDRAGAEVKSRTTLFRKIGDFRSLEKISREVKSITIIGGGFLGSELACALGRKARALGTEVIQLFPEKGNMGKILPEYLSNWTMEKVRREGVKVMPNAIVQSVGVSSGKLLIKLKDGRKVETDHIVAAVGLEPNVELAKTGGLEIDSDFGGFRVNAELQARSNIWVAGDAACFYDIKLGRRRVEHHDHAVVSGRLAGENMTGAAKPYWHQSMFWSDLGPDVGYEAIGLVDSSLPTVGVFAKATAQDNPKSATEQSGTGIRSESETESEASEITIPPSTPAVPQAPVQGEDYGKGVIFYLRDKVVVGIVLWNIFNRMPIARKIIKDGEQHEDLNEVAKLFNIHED
UniProt Q9H9F9, whole entry, looked up: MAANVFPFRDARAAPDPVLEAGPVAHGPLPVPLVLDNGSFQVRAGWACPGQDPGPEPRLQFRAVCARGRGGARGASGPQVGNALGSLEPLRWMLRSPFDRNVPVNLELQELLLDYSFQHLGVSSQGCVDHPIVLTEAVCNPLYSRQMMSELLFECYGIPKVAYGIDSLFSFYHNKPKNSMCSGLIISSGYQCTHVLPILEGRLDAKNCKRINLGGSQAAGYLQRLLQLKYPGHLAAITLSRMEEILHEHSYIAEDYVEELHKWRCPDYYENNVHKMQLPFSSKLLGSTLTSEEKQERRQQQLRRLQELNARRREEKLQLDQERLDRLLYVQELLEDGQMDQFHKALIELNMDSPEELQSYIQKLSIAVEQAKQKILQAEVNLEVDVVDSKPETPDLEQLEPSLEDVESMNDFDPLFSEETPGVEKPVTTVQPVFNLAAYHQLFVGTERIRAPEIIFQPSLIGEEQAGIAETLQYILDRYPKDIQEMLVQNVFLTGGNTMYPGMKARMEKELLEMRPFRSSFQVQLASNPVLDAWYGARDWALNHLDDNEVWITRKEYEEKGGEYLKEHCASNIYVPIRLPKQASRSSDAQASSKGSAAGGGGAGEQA
UniProt Q96HN2, whole entry, looked up: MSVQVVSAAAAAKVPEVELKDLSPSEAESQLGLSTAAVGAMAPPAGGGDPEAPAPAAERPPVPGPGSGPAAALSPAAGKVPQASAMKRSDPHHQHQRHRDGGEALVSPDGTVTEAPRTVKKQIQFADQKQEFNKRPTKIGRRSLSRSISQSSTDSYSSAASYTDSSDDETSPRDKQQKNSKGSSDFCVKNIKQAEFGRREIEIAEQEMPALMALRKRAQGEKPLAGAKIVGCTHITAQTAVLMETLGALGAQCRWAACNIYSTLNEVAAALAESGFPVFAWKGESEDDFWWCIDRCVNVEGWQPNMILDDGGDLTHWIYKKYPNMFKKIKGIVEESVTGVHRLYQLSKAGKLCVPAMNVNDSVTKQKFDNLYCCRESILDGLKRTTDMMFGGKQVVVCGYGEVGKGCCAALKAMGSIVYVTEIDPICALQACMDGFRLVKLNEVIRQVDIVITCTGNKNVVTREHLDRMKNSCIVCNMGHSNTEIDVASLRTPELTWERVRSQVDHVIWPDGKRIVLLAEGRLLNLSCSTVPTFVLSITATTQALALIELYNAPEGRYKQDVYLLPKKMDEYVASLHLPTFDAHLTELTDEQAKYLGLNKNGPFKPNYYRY
UniProt P30566: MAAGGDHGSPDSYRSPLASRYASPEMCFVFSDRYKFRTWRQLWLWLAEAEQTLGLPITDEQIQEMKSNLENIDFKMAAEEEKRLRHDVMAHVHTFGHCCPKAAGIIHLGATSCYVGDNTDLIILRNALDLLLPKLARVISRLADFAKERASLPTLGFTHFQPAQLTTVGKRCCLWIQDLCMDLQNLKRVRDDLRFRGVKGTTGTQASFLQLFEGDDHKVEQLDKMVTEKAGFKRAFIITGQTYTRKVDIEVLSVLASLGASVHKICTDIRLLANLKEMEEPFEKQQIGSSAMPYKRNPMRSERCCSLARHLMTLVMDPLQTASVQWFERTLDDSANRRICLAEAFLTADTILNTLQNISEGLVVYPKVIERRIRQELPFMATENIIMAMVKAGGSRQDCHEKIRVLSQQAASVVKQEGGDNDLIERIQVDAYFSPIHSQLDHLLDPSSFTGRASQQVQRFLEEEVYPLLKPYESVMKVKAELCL
UniProt Q9UHB7: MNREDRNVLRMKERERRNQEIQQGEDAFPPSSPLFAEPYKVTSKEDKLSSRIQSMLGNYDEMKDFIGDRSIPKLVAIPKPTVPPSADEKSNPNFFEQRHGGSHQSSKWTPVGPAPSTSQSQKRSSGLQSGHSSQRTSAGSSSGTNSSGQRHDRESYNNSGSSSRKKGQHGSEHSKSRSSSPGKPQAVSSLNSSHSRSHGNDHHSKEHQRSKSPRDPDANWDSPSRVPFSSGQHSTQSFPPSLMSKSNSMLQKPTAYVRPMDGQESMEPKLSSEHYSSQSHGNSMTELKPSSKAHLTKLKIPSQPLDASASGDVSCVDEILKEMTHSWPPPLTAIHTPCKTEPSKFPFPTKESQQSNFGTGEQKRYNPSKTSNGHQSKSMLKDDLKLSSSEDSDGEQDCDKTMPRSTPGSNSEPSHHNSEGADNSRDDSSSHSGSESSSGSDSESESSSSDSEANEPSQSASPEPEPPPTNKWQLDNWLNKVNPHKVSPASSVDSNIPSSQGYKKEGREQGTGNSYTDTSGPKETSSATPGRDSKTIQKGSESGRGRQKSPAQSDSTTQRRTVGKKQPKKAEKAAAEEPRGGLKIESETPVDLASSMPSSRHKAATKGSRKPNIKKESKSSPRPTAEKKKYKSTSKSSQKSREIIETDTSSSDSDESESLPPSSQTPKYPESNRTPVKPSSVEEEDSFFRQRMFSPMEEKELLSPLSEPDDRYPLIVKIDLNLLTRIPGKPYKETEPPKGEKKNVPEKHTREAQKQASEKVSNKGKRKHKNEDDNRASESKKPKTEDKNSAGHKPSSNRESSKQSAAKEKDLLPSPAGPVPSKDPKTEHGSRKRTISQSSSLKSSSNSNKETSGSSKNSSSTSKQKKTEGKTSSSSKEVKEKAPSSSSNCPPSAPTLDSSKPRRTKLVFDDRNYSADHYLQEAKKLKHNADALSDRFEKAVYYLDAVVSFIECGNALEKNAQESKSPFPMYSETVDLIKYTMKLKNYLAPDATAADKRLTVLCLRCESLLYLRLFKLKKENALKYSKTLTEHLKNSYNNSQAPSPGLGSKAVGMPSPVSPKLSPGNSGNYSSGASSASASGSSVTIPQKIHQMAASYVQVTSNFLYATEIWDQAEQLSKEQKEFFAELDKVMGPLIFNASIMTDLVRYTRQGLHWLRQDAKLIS
UniProt Q4G176: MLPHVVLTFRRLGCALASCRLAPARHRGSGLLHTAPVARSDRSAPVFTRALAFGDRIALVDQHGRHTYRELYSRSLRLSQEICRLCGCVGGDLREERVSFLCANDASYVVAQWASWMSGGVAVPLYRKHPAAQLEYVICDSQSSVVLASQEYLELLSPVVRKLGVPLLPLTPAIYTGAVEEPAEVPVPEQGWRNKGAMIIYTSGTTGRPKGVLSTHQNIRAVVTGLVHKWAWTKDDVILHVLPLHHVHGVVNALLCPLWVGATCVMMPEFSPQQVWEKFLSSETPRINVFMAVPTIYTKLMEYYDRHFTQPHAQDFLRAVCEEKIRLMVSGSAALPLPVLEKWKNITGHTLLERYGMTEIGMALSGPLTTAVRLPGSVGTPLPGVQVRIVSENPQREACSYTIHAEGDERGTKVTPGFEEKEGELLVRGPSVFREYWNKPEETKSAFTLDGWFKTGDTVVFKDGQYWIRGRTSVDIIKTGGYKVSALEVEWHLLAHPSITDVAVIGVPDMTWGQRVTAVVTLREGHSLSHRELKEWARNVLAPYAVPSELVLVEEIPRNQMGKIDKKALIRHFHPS

The list shows a part of the results.

Compound in this test: O=C(O)c1ccc2c(c1)nc(Nc1cccc(Cl)c1)c1ccncc12 [silmitasertib]
The test is described as follows: log2 fold change, soluble protein after heating vs DMSO (PISA); higher = thermal stabilisation; K562 lysate, 10 uM; active = over 0.2 and 3.5 SD of the protein, either way, in both replicates (recomputed). The gist of the method: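 Log-two fold change in thermal stability relative to solvent controls is reported from duplicates. For each sample, crude K562 extract from dounce-homogenised pellets in PBS pH 7.4 with 1 mM MgCl2, at 1 mg/mL protein, was treated with 10 μM compound for 30 min. Aliquots heated for 3 min across 48°C-58°C were pooled, brought to 0.5% NP-40 at 4°C and cleared at 21,000xg for 90 min. The supernatant was quantified by TMTpro 16plex LC-MS/MS with channel sums equalised.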
With ACY1 (UniProt Q03154), the log2 fold change is inactive: -0.018.

ACTB, A0A2R8Y793: the log2 fold change is inactive: 0.012.

Regarding AKAP8L (UniProt Q9ULX6), the log2 fold change was inactive: -0.001.

For the target AGFG1 isoform 4 (UniProt P52594), the log2 fold change is inactive: -0.029.

For the target ACTR10 (UniProt Q9NZ32), the log2 fold change was inactive: -0.022.

As to AFF1 isoform 2 (UniProt P51825), the log2 fold change is inactive: -0.046.

Consider AKAP1 (UniProt Q92667), for which the log2 fold change was inactive: 0.011.

On to ADAT2 (UniProt Q7Z6V5), for which the log2 fold change is inactive: -0.028.

With ADIPOR2 (UniProt Q86V24), the log2 fold change was inactive: 0.007.

On to ACTL8 (UniProt Q9H568), for which the log2 fold change is inactive: 0.065.

As for ACTR1A (UniProt P61163), the log2 fold change was inactive: -0.024.

For AGK (UniProt Q53H12), the log2 fold change is inactive: 0.037.

Take ADAM9 (UniProt Q13443): the log2 fold change was inactive: 0.002.

AHCYL1 (UniProt O43865): the log2 fold change was inactive: -0.021.

Turning to AKIRIN2 (UniProt Q53H80), the log2 fold change is inactive: -0.065.

With AIP (UniProt O00170), the log2 fold change is inactive: -0.032.

For the target ACTG1 (UniProt I3L4N8), the log2 fold change was inactive: -0.043.

On to ACTR3B (UniProt Q9P1U1), for which the log2 fold change is inactive: 0.047.

On to AKNA (UniProt Q7Z591), for which the log2 fold change is inactive: 0.041.

In the case of AKR1C2 (UniProt P52895), the log2 fold change is inactive: -0.011.

Regarding AIFM1 (UniProt O95831), the log2 fold change was inactive: -0.007.

As for AKAP8 (UniProt O43823), the log2 fold change was inactive: 0.019.

Consider ACYP1 (UniProt P07311), for which the log2 fold change was inactive: -0.028.

For AHCY (UniProt P23526), the log2 fold change was inactive: 0.029.

As to ADNP (UniProt Q9H2P0), the log2 fold change is inactive: 0.003.

For ACTR2 (UniProt P61160), the log2 fold change is inactive: 0.007.

Consider ACOT7 isoform 7 (UniProt O00154), for which the log2 fold change was inactive: 0.025.

In the case of AGFG2 (UniProt O95081), the log2 fold change is inactive: 0.141.

As for ACTN2, A0A494C031, the log2 fold change is inactive: 0.073.

As for ACTR5 (UniProt Q9H9F9), the log2 fold change was inactive: -0.174.

AGRN (UniProt O00468): the log2 fold change was inactive: -0.041.

As to AIFM2 (UniProt Q9BRQ8), the log2 fold change is inactive: -0.015.

Consider AHCYL2 (UniProt Q96HN2), for which the log2 fold change was inactive: 0.025.

In the case of AGA (UniProt P20933), the log2 fold change was inactive: 0.053.

As for ADA (UniProt P00813), the log2 fold change is inactive: -0.012.

Consider ADSL (UniProt P30566), for which the log2 fold change was inactive: 0.

AFF4 (UniProt Q9UHB7): the log2 fold change was inactive: -0.04.

For the target AGPS (UniProt O00116), the log2 fold change was inactive: -0.007.

On to ADPGK (UniProt Q9BRR6), for which the log2 fold change is inactive: -0.108.

For ACSF3 (UniProt Q4G176), the log2 fold change is inactive: 0.028.
